Measured values reported in PubChem BioAssay AID1794845 (National Center for Advancing Translational Sciences (NCATS), 2023).
The whole screen tested about 6,900 compounds, of which fewer than 10 were called active. Calls come from the whole dose curve; as a rule, active = well fitted curve in the direction sought with a large enough effect; inconclusive = small, poorly fitted or top-dose-only effect, or another doubt; inactive = no such curve, though single readings can be large or run the other way. The list shows a part of the results.

Sequences of proteins named here, by UniProt entry; tags and fusion partners are left off. A change or cut given only in a name is not applied to a line headed by its entry.
UniProt C7C422: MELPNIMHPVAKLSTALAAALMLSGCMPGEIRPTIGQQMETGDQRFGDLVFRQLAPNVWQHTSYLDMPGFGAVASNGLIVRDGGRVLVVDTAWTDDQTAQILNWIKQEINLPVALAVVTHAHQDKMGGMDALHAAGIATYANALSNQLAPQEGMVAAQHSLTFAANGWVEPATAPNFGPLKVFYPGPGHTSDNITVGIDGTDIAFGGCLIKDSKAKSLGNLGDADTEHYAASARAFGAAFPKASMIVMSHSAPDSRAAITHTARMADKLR

target: Metallo-beta-lactamase type 2 (Klebsiella pneumoniae) (UniProt C7C422); test: qHTS to identify inhibitors of the New Delhi Metallo-beta-lactamase (NDM): primary screen against the NCATS Gemini Collection; settings: NDM-1 enzyme, meropenem hydrolysis, absorbance 300 nm; at 38.4 µM (top of the series) unless noted; note: % of control where 0% means no effect
How it was run: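 NDM-1 at 2 nM final in 50 mM HEPES pH 7.0, 1 uM ZnSO4, 0.01% Tween20, preincubated >30 min with compound. Meropenem 50 uM final added; absorbance at 300 nm after 30 min.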

Activity % (negative = inhibition), inactive:
COc1ccc(CC(=O)N2CCC3(CC2)C(=O)NCN3C(=O)C2CCCC2)cc1 -1.94%
CCn1ccnc1CN(C)Cc1cccc(OCC(O)CN(C)C2CCCCC2)c1 (stereo not drawn) -10.7%
Cc1ccc(NC(=O)Cn2c(N3CCN(c4ccccc4)CC3)nc(C)cc2=O)cc1 11.3%
O=C(NCc1cccs1)c1c[nH]c2ncccc12 10.3% [at 57.5 µM]
Cn1nccc1C(=O)N1CC(C(=O)Nc2ccccn2)C2(CCOCC2)C1 (stereo not drawn) -0.568%
Cc1nn2c(c1-c1ccccc1OCc1ccccc1)N(Cc1nccn1C)CCC2 -5.19% [at 57.5 µM]
COc1ccc(CC2CCOC3(CCN(S(=O)(=O)c4c(C)nn(C)c4C)CC3)C2)cc1 (stereo not drawn) 6.76%
Cc1cn(C[C@H](NC(=O)c2cccc(F)c2)C(=O)O)c(=O)[nH]c1=O 5.68% [at 57.5 µM]
CC1=C[C@@H](CN2CCC(O)CC2)[C@H](C(C)C)C[C@H]1Cc1nnc(-c2ccncc2)o1 -0.749% [at 57.5 µM]
O=C(CCC1CCCN(Cc2cccn2-c2ccccn2)C1)Nc1ccccc1F (stereo not drawn) -2.8%
Cc1nn(C)c(=O)n1C1CCN(C(=O)c2ccco2)CC1 1.16%
O=C(NC1CCCN(c2cc(-c3ccc(F)cc3)[nH]n2)C1)c1cnccn1 (stereo not drawn) -0.18%
Cc1cnc(CCNC(=O)Cc2ccncc2)n1CC1CC1 0.362%
CN(Cc1nccs1)C(=O)CC(c1ccccc1)c1cccc(Cl)c1 (stereo not drawn) 0.0291%
Cc1noc(C)c1[S+](=O)([O-])N1CCn2cc(C(=O)Nc3ccc(Cl)cc3Cl)nc2C1 0.75%
CCOc1ccccc1C(=O)N1CCC(c2n[nH]c(=O)n2Cc2ccc(OC)cc2)CC1 0.475%
Cc1ccccc1-c1cn(C)c(=O)n2cc(CNc3ccccc3)nc12 1.9% [at 57.5 µM]
COc1ccccc1C(C(=O)O)N1CCC(OCc2cccnc2)CC1 (stereo not drawn) -3.99%
CN1CCC(Nc2ncc(C(C)(C)C(=O)O)c(N3CCOCC3)n2)CC1 12.5%
OC[C@@H]1O[C@H](CNCc2cccc(Cl)c2)[C@H](N2CCN(c3ccccn3)CC2)[C@@H]1O 9.15%
O=C(O)CC1CCCCN(Cc2ccccc2)C1=O (stereo not drawn) 17.2%
O=C(CCc1nnn2c1CN(Cc1cn[nH]c1-c1ccc(F)cc1)CC2)N1CCCC1 79.3%
O=C(CSCC1CC1)N1CCC2(CCC(=O)N(CCCn3ccnc3)C2)CC1 7.81%

Part of the list above in order of length of the SMILES, smallest number first.
Activity % (negative = inhibition), inactive:
Cc1cnc(CCNC(=O)Cc2ccncc2)n1CC1CC1 0.362%
Cc1ccccc1-c1cn(C)c(=O)n2cc(CNc3ccccc3)nc12 1.9% [at 57.5 µM]
O=C(NC1CCCN(c2cc(-c3ccc(F)cc3)[nH]n2)C1)c1cnccn1 (stereo not drawn) -0.18%
